Here are results for 5 molecules from US20030073629A1, “Omi and domains thereof that disrupt IAP-caspase interaction” (priority 2001, published 2003).

Amino acid sequences for entries named in this document (tags omitted). A change or cut given only in a name is not applied to a line headed by its entry. Chains listed by the source or under a name are the forms on record and can include a tag or linker. Residues count along the entry.
UniProt P98170: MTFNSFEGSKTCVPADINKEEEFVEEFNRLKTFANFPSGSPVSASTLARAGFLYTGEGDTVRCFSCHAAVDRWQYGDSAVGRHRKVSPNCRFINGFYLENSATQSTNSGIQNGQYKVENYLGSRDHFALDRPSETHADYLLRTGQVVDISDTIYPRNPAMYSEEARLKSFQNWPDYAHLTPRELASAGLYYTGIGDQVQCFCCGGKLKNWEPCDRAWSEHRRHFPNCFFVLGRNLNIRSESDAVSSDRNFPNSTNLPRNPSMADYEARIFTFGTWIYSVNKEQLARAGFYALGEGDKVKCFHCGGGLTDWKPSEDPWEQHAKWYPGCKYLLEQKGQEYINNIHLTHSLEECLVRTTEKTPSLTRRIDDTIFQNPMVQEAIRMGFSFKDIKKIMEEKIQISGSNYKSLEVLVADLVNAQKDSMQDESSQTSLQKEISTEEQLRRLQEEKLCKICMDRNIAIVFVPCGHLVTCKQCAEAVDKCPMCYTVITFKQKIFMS
GST-BIR1, 2 fusion protein: residues 1-240 of P98170
GST-BIR3 fusion protein (BIR3 domain of human XIAP fused to GST): residues 238-358 of P98170
UniProt Q13489: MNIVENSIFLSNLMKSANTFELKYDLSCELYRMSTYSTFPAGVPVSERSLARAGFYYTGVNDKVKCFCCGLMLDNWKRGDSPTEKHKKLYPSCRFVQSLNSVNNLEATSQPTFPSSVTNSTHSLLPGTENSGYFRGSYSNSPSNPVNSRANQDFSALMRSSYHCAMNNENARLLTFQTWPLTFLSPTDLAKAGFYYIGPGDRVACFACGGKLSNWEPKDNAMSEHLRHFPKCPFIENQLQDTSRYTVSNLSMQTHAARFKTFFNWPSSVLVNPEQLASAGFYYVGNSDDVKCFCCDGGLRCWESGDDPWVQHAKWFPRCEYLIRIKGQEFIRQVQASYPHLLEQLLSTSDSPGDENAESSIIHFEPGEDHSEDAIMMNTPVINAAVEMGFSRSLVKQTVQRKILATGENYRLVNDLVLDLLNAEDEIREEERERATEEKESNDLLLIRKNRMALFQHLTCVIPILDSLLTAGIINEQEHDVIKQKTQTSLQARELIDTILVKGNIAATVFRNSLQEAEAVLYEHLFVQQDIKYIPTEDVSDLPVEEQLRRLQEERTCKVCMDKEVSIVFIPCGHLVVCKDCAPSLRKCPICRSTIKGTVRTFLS
UniProt Q13490: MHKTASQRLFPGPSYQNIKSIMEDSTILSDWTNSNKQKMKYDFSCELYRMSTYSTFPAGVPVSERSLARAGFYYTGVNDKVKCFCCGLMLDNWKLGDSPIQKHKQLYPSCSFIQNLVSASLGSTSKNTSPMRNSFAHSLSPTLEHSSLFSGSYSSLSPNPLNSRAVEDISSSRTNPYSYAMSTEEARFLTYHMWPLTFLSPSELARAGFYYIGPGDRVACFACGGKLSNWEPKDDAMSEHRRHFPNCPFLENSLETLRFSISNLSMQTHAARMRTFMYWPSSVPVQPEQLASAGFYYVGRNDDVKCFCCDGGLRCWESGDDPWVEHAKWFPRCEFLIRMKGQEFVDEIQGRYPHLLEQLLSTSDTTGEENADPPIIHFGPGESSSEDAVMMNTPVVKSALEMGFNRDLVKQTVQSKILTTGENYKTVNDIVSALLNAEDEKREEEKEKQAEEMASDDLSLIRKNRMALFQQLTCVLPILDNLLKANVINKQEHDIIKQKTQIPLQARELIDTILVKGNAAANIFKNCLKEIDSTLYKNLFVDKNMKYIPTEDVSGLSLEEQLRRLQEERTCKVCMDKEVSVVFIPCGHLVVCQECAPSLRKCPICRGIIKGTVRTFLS

Where a chain is given by its changes, count along the chain named. Names and notes keep the numbering of the source. No constants are given. Whether binding was seen depends on the method and setting. For part of these data: In cells and extracts the contact can be indirect. Some entries that bind do so weakly or less than the wild type. For part of these data: Sequences can lack the tags named with a protein.

The target of experiment [1] is GST-BIR3 fusion protein (BIR3 domain of human XIAP fused to GST) (human) (UniProt P98170). Kind of experiment: GST pull-down with purified recombinant proteins, Coomassie gel.
In experiment [2] the target is GST-BIR1, 2 fusion protein (human) (UniProt P98170). The experiment is described as above.
For experiment [3], the target named is cIAP2 (UniProt Q13489). Kind of experiment: His6-tagged protein on Talon resin, pull-down of ^35S-labeled in vitro-translated IAP, autoradiography.
The target in experiment [4] is cIAP1 (UniProt Q13490). Described as above.
Experiment [5] has as its target XIAP (human) (UniProt P98170). Described as above.
The target of experiment [6] is GST-BIR3 fusion protein (BIR3 domain of human XIAP fused to GST) (human) (UniProt P98170). As to the kind of experiment: GST-BIR3 pull-down from undepleted and Smac-depleted 293 extracts, far-western.
Experiment [7] deals with XIAP (human) (UniProt P98170). As to the kind of experiment: co-immunoprecipitation with Flag antibody from transfected 293T cells, XIAP immunoblot. In general terms: In western blotting, separated proteins are transferred to a membrane and probed.
Experiment [8] has as its target GST-BIR3 fusion protein (BIR3 domain of human XIAP fused to GST) (human) (UniProt P98170). As to the kind of experiment: GST-BIR3 precipitation of transfected 293T cell extracts, Flag immunoblot.

B1: C-terminal His6-tagged recombinant wild type mature Omi (Omi lacking the first 133 residues) (enzyme)
chain: AVPSPPPASPRSQYNFIADVVEKTAPAVVYIEILDRHPFLGREVPISNGSGFVVAADGLIVTNAHVVADRRRVRVRLLSGDTYEAVVTAVDPVADIATLRIQTKEPLPTLPLGRSADVRQGEFVVAMGSPFALQNTITSGIVSSAQRPARDLGLPQTNVEYIQTDAAIDFGNSGGPLVNLDGEVIGVNTMKVTAGISFAIPSDRLREFLHRGEKKNSSSGISGSQRRYIGVMMLTLSPSILAELQLREPSFPDVQHGVLIHKVILGSPAHRAGLRPGDVILAIGEQMVQNAEDVYEAVRTQSQLAVQIRRGRETLTLYVTPEVTEHHHHHH
For B1, the binding result in experiment [1], in experiment [2], in experiment [3], in experiment [4] and in experiment [5] was “binds” throughout.

B2: Omi-S306A (C-terminal His6-tagged recombinant mature Omi, active site Ser306 to Ala) (enzyme)
chain: B1 chain with S173A
As to B2, in experiment [1], the binding entry was “binds”.

B3: endogenous mature Omi from HEK293 cell extracts (38 kDa band) (enzyme)
chain: AVPSPPPASPRSQYNFIADVVEKTAPAVVYIEILDRHPFLGREVPISNGSGFVVAADGLIVTNAHVVADRRRVRVRLLSGDTYEAVVTAVDPVADIATLRIQTKEPLPTLPLGRSADVRQGEFVVAMGSPFALQNTITSGIVSSAQRPARDLGLPQTNVEYIQTDAAIDFGNSGGPLVNLDGEVIGVNTMKVTAGISFAIPSDRLREFLHRGEKKNSSSGISGSQRRYIGVMMLTLSPSILAELQLREPSFPDVQHGVLIHKVILGSPAHRAGLRPGDVILAIGEQMVQNAEDVYEAVRTQSQLAVQIRRGRETLTLYVTPEVTE
As for B3, the binding entry in experiment [6] was “binds”.

B4: mature Omi processed in 293T cells from the C-terminal Flag-tagged wild type Omi precursor (enzyme, not shown: small tags and cut ends)
chain: B3 chain
In the case of B4, in experiment [7], the binding entry is reported as “binds”.

B5: mature Omi-S/A released by caspase cleavage at the IETD site of GFP-IETD-AVP (enzyme)
chain: B3 chain with S173A
On to B5, for which the binding entry in experiment [8] is recorded as “binds”.
